Test results from paper PMC8589837.
These are yes or no findings as the source states them, for the method shown. Binding seen in cells or lysates may run through a third protein. Some entries that bind do so weakly or less than the wild type.

Chains of the proteins cited; added tags and fusions are not shown.
UniProt Q07832: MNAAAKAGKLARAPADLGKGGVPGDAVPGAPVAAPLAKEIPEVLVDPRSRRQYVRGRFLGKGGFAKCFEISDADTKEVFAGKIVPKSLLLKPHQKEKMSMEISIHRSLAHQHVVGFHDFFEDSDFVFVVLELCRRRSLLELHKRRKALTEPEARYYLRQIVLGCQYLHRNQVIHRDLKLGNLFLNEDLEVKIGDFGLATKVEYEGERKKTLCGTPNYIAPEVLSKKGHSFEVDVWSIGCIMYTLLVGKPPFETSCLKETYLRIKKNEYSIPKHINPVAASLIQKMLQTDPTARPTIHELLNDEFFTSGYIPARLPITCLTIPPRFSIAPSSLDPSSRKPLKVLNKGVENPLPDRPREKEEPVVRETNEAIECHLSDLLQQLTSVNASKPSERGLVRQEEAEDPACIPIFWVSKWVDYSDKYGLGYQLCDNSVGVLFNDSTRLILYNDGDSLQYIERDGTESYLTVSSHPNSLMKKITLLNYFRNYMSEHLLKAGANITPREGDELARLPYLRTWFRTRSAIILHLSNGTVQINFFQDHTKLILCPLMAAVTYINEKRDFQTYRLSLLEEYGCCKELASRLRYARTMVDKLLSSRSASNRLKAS
UniProt Q76MZ3: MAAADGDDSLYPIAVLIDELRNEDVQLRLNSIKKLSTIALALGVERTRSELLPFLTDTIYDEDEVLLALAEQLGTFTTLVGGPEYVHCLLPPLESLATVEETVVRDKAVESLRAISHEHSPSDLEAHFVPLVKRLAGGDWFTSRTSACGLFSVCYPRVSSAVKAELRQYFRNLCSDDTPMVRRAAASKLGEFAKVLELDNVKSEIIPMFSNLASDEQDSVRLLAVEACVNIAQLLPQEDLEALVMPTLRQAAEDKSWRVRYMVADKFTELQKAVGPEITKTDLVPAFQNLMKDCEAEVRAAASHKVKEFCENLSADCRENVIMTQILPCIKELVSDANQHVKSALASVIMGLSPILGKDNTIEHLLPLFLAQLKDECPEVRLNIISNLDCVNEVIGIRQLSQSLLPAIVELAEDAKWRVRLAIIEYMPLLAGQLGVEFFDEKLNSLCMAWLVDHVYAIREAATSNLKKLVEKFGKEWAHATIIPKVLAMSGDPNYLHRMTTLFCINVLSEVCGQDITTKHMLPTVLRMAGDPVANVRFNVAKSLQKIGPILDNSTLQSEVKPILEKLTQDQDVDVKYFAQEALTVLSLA
UniProt E9Q7E2: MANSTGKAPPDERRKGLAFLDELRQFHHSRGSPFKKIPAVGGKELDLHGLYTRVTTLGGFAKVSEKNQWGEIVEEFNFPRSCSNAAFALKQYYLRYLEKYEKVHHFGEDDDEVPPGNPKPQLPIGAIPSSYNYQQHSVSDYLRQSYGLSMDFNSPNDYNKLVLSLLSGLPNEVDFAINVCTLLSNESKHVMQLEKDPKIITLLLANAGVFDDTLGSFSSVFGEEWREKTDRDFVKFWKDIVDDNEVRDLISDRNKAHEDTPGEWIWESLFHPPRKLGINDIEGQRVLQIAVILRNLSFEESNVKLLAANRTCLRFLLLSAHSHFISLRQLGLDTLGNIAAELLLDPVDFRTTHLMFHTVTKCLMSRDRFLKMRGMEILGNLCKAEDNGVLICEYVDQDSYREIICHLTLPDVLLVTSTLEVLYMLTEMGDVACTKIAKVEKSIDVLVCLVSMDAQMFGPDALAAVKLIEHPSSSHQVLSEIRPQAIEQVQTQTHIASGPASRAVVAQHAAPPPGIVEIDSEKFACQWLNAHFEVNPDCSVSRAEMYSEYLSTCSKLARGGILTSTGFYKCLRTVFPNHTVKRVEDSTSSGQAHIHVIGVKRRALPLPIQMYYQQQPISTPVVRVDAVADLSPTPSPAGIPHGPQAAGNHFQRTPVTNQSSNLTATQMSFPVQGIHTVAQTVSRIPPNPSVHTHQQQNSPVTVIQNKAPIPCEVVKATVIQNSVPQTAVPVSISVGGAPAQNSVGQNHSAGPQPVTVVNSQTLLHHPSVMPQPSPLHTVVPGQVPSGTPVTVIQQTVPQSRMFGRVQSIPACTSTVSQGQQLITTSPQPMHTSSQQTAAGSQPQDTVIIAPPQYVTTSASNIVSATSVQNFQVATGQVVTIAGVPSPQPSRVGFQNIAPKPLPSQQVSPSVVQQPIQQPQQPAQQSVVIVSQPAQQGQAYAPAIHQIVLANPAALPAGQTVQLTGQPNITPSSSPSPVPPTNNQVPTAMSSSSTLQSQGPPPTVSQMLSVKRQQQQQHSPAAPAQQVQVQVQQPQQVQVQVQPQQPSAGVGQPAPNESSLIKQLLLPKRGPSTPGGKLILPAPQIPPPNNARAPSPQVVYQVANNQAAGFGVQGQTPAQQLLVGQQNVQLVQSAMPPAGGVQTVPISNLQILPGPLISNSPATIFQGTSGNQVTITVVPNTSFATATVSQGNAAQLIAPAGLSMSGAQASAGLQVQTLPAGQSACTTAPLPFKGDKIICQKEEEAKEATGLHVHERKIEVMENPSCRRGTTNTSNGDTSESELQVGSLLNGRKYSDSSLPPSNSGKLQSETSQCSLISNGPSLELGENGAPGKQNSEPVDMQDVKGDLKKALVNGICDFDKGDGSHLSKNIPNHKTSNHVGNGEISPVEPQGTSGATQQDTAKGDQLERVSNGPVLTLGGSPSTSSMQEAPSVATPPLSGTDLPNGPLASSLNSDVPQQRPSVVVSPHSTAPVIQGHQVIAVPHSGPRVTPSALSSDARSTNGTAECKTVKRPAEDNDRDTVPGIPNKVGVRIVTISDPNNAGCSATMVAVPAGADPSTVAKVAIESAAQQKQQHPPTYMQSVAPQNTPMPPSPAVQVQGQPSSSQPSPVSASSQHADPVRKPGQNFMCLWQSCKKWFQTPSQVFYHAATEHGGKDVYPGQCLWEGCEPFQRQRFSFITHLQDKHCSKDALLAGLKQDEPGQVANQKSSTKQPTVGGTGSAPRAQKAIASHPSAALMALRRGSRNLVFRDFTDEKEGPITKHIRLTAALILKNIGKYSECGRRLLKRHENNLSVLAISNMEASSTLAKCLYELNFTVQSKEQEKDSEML
UniProt Q3TKT4: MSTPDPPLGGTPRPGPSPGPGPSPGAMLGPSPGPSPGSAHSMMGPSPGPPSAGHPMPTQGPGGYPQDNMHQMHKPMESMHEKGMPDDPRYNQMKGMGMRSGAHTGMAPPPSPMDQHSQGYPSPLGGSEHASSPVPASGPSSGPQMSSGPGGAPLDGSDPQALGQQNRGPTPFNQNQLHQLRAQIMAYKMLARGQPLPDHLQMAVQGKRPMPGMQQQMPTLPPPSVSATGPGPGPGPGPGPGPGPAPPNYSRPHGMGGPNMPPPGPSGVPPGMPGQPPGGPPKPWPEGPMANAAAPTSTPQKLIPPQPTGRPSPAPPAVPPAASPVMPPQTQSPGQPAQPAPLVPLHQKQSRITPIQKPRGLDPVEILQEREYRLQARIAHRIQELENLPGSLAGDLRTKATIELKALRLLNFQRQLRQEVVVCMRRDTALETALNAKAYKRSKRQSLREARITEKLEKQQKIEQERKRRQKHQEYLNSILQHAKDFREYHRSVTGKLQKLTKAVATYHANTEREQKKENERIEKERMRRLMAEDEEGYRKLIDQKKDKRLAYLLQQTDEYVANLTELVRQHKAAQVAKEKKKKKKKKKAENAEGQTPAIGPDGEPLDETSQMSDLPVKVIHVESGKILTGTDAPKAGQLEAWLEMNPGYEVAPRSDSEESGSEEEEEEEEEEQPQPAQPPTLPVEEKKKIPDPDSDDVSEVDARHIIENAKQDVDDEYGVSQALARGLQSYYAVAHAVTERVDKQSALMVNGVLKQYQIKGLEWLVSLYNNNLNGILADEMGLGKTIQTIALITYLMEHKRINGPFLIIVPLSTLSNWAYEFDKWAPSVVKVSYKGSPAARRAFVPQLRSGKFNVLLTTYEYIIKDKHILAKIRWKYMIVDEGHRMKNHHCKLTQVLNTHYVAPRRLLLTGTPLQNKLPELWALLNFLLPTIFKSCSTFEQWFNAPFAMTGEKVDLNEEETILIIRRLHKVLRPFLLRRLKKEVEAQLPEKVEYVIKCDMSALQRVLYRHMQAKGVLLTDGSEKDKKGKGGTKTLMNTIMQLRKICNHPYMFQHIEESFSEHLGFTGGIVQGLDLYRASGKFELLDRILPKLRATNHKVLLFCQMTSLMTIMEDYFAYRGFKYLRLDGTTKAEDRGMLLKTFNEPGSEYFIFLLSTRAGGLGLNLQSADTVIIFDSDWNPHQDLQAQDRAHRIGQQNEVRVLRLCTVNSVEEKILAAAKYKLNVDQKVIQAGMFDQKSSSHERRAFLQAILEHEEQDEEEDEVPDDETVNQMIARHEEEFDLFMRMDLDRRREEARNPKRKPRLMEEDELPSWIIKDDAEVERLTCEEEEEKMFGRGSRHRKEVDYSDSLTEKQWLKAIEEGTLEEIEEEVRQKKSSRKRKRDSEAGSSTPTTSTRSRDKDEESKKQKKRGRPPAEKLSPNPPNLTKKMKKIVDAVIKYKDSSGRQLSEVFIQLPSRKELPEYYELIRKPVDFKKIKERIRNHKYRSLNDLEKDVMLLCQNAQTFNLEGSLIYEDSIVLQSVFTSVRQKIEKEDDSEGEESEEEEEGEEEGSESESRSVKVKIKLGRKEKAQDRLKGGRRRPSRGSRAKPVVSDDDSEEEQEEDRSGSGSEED

Key:
Assay in all cases: co-IP; endogenous proteins from mouse spermatocyte lysates (1 mg; Buffer C with 0.1% IGEPAL, diluted in buffer D), treated with universal nuclease, antibody overnight at 4 °C in IP buffer, protein A or G magnetic beads, detection by immunoblot
[1] = molecular target: Polo-like kinase1 (PLK1) (mouse (endogenous in spermatocytes)) (UniProt Q07832)
[2] = molecular target: PPP2R1A (protein phosphatase 2 regulatory subunit A alpha) (mouse (endogenous in spermatocytes)) (UniProt Q76MZ3)
[3] = molecular target: ARID2, a PBAF (Polybromo - Brg1 Associated Factor)-specific subunit (mouse (endogenous in spermatocytes)) (UniProt E9Q7E2)
[4] = molecular target: BRG1, the catalytic subunit of mammalian SWI/SNF chromatin remodeling complex (mouse (endogenous in spermatocytes)) (UniProt Q3TKT4)

| Substance | binding [1] | binding [2] | binding [3] | binding [4] |
| --- | --- | --- | --- | --- |
| BRG1, the catalytic subunit of mammalian SWI/SNF chromatin remodeling complex (from UniProt Q3TKT4 1-1613) | binds | binds |  |  |
| PPP2R1A (protein phosphatase 2 regulatory subunit A alpha) (from UniProt Q76MZ3 1-589) |  |  | binds |  |
| ARID2, a PBAF (Polybromo - Brg1 Associated Factor)-specific subunit (from UniProt E9Q7E2 1-1828) | binds | binds |  |  |
| Polo-like kinase1 (PLK1) (from UniProt Q07832 1-603) |  |  | binds | binds |
